Patent US20190055314A1
These are yes or no findings as the source states them, for the method shown. Some results given as binding are weak or reduced against the parent protein; the word gives no strength. Values belong to the substance of their own block, whether it stands above or below them.

The chains behind the UniProt entries cited, without tags or fusion partners. Where a name states a change or a piece, a line headed by the entry shows the natural chain unless it says otherwise. Residues count along the entry.
UniProt Q07011: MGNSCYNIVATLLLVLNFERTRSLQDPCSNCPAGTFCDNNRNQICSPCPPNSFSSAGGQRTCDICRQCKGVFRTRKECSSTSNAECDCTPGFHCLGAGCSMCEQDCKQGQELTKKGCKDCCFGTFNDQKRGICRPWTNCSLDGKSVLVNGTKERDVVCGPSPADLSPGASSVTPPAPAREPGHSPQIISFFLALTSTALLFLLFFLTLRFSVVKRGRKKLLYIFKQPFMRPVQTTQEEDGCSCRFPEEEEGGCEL
UniProt P41273, residues 71-254: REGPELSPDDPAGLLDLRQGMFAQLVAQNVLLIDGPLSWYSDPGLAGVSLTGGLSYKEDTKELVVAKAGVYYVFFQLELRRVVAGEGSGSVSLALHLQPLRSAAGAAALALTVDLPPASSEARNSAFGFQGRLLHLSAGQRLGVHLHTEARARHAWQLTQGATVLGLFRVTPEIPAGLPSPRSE
UniProt P41274, residues 104-309: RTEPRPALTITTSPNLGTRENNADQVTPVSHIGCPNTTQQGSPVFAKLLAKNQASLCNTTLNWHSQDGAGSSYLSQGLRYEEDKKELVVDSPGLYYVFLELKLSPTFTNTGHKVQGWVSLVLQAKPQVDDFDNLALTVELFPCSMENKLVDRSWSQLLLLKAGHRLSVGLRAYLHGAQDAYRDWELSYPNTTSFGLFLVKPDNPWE

How the values were obtained:
[1] = target: full-length human CD137 on the cell surface (human) (UniProt Q07011); assay: flow cytometry
[2] = target: full-length human CD137 on the cell surface (human) (UniProt Q07011); assay: flow cytometry, HEK293F cells expressing CD137 or mutant [Cont.]
[3] = target: Hu_PW135AA (human) (UniProt Q07011); assay: as above
[4] = target: Hu_FN125AA (human) (UniProt Q07011); assay: as above
[5] = target: Hu_GT150AA (human) (UniProt Q07011); assay: as above
[6] = target: Hu_CRD1-CRD2-CRD3 (human) (UniProt Q07011); assay: flow cytometry, yeast display
[7] = target: Hu_CRD1-CRD2-CRD3 (human) (UniProt Q07011); assay: flow cytometry, yeast display [Cont.]
[8] = target: full-length human CD137 on the cell surface (human) (UniProt Q07011); assay: flow cytometry, HEK293F
[9] = target: Hu_PW135AA (human) (UniProt Q07011); assay: flow cytometry, HEK293F
[10] = target: Hu_N30A (human) (UniProt Q07011); assay: flow cytometry, HEK293F
[11] = target: Hu_F125A (human) (UniProt Q07011); assay: flow cytometry, HEK293F
[12] = target: Hu_L95A (human) (UniProt Q07011); assay: flow cytometry, HEK293F
[13] = target: Hu_GQ109AA (human) (UniProt Q07011); assay: flow cytometry, HEK293F
[14] = target: Hu_Q59A (human) (UniProt Q07011); assay: flow cytometry, HEK293F
[15] = target: Hu_P50A (human) (UniProt Q07011); assay: flow cytometry, HEK293F
[16] = target: Hu_I64A (human) (UniProt Q07011); assay: flow cytometry, HEK293F
[17] = target: Hu_FN125AA (human) (UniProt Q07011); assay: flow cytometry, HEK293F
[18] = target: Hu_GT150AA (human) (UniProt Q07011); assay: flow cytometry, HEK293F
[19] = target: Hu_R66A (human) (UniProt Q07011); assay: flow cytometry, HEK293F
[20] = target: Hu_TN137AA (human) (UniProt Q07011); assay: flow cytometry, HEK293F
[21] = target: Hu_EL111AA (human) (UniProt Q07011); assay: flow cytometry, HEK293F
[22] = target: T1, full-length mouse CD137 on the cell surface (mouse) (UniProt P20334); assay: flow cytometry
T1 sequence: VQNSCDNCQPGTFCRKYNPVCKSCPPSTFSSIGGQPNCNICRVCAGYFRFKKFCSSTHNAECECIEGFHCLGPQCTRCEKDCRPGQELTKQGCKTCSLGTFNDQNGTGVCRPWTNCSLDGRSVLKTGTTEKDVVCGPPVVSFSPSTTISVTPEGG

[23] = target: T1, full-length mouse CD137 on the cell surface (mouse); assay: flow cytometry, yeast display [Cont.]

binding [1]: binds
binding [2]: binds
binding [3]: binds
binding [4]: binds
binding [5]: binds
binding [6]: binds
binding [7]: binds
binding [8]: binds
binding [9]: binds
binding [10]: binds
binding [11]: binds
binding [12]: binds
binding [13]: binds
binding [14]: binds
binding [15]: binds
binding [16]: binds
binding [17]: binds
binding [18]: binds
binding [19]: binds
binding [20]: binds
binding [21]: binds
Substance: human CD137 ligand (from UniProt P41273 71-254)

binding [22]: binds
binding [23]: binds
Substance: mouse CD137L (from UniProt P41274 104-309) (ligand)
